Source: the supplement of paper PMC12889115
This is one part of the list. Values are raw readings; no control value is given beside them.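 Primary screen: polymyxin B was added at a level permeabilizing Salmonella outer membranes while sparing inner membranes. DMSO wells, both with and without polymyxin B, established maximum growth. Plate-to-plate variation meant each plate was ranked on its own, and the lowest-OD600 compounds were selected as hits.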

Test system: Salmonella enterica serovar Typhimurium SL1344
Assay: bacterial growth OD600 after 18 h with compound and polymyxin B; higher = more bacterial growth (less inhibition)
Conditions: 50 µM, Mueller-Hinton broth

Row | SMILES | bacterial growth OD600 (polymyxin B 0.75 µg/mL) | bacterial growth OD600 (polymyxin B 1 µg/mL)
1 | C=CCC(O)(CC=C)C(C)NC(=O)CCC1(Cc2ccc3ccccc3c2)CCC(=O)N1 (stereo not given) | 0.787 | 
2 | CCOC(=O)C1(Cc2ccccc2)CCN(Cc2ccccc2OC)CC1 |  | 0.912
3 | CCOC(=O)N1CCC(NC(=O)C2CC23CCN(C(=O)c2ccc(-c4ccccc4)cc2)CC3)CC1 (stereo not given) | 0.018 | 
4 | CC1=C(C(=O)N2CCC3(CCCN(Cc4ccc(F)c(F)c4)C3=O)C2)OCCO1 (stereo not given) |  | 0.972
5 | Cc1cc(C(=O)N2CCCC(N3CCN(c4cccc(Cl)c4)CC3)C2)nn1C (stereo not given) |  | 0.862
6 | CC(=O)N1CCC(C(=O)NC2CC(C)(C)Cc3c2cnn3-c2ccc(F)cc2)CC1 (stereo not given) |  | 0.905
7 | CC1(CCC(=O)N2CCC(C3CCN(Cc4cccc(F)c4F)CC3)C2)CC1 (stereo not given) | 0.784 | 
8 | Cc1ccsc1C(=O)NCCN1Cc2ccccc2OC(c2ccccc2F)C1 (stereo not given) | 0.075 | 
9 | O=C1CCC(CCC(=O)N2CCCC(C(=O)c3cccnc3)C2)(Cc2ccc(Cl)cc2)N1 (stereo not given) | 0.896 | 
10 | O=C(c1ccc(NCC2CC2)nc1)N1CCCN(c2ncccn2)CC1 | 0.977 | 
11 | C=CCCC(=O)NC1CC(=O)N(CCc2cccc(Cl)c2)C1 (stereo not given) |  | 1.1
12 | COc1cc(CN2CCN(Cc3cnn(C(C)C)c3)CC2CCO)cc(OC)c1 (stereo not given) |  | 1.01
13 | COc1ccc(CN(Cc2ccncc2)C(=O)c2ccc3[nH]c(C)c(C)c3c2)cc1OCC1CCCCO1 (stereo not given) | 0.821 | 
14 | Cc1nc2ccccc2n1Cc1cc(C(=O)N2C[C@@H](C)O[C@@H](C)C2)n[nH]1 |  | 0.871
15 | Cc1cc(-c2nnc(CCC(=O)N3CCN(C4CCc5ccccc5C4)CC3)o2)no1 (stereo not given) |  | 0.908
16 | O=C(NCCc1ccco1)c1cc(Cn2ccc3ccccc32)[nH]n1 | 0.795 | 
17 | O=C(C1CCC1)N1CCCC(CCc2cccc(F)c2)C1 (stereo not given) | 0.434 | 
18 | CN1CCN(C(=O)c2coc(COc3cccc(F)c3F)n2)CC1 |  | 0.952
19 | Cc1ncsc1CCC(=O)N1CCC2(CCCN(C)C2=O)C1 (stereo not given) |  | 0.87
20 | CCOCc1cc(CN2CCC(n3nccc3NC(=O)C3CC3)CC2)ccc1OC |  | 0.924

Three entries out of the list, ordered by length of the SMILES, rising:
Row | SMILES | bacterial growth OD600 (polymyxin B 0.75 µg/mL) | bacterial growth OD600 (polymyxin B 1 µg/mL)
15 | Cc1cc(-c2nnc(CCC(=O)N3CCN(C4CCc5ccccc5C4)CC3)o2)no1 (stereo not given) |  | 0.908
6 | CC(=O)N1CCC(C(=O)NC2CC(C)(C)Cc3c2cnn3-c2ccc(F)cc2)CC1 (stereo not given) |  | 0.905
1 | C=CCC(O)(CC=C)C(C)NC(=O)CCC1(Cc2ccc3ccccc3c2)CCC(=O)N1 (stereo not given) | 0.787 | 
